Laboratory results: PubChem BioAssay AID1259254 (NCATS, 2017)

Test: 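Finding genes that stop cells copying their DNA twice in one cycle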 (primary screen)
Cell system: human HCT116 colorectal cancer cells
Reagent: single siRNA against human genes
Duration: 3 days
Measured: 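Imaged Hoechst DNA stain sorts each cell into a cycle phase by DNA amount; per plate, G2 fraction set to 0% for non-targeting and 100% for GMNN siRNA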
Reading the numbers: G2 robust z-score and G2 cells, % of GMNN control: higher = more G2 cells, more excess DNA replication
Call rule: 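Active siRNAs have a G2 robust z of 5 or more median absolute deviations over the median, which in these data means about 38% or higher of GMNN control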
The deposit covers about 59,000 reagents; this is a part drawn at random. About 1,550 of them (2.6%) were called active. 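G2 share is only a proxy for re-replication; each gene was hit by three separate siRNAs, and active genes were retested.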 Unmarked entries are inactive. The numbers tell different reagents against one gene apart. Not all columns of the deposit are shown. Not given: the amount of reagent.

gene symbol | reagent no. | G2 robust z-score | G2 cells, % of GMNN control
RHOT2 | 1 | 0.46 | 6.2
RHOT2 | 2 | -1.2 | -5.5
RHOT2 | 3 | -0.741 | -2.25
PDRG1 | 1 | 0.949 | 9.65
PDRG1 | 2 | -0.0136 | 2.87
PDRG1 | 3 | -0.645 | -1.57
PCGF1 | 1 | 10.1 (active) | 73.8
PCGF1 | 2 | 2.14 | 18
PCGF1 | 3 | 2.09 | 17.7
ESYT1 | 1 | 1.78 | 15.5
ESYT1 | 2 | 2.8 | 22.7
ESYT1 | 3 | 4.08 | 31.7
ZNF337 | 1 | -0.631 | -1.47
ZNF337 | 2 | 1.11 | 10.8
ZNF337 | 3 | -0.281 | 0.992
SLC31A2 | 1 | 2.81 | 22.7
SLC31A2 | 2 | 0.0251 | 3.14
SLC31A2 | 3 | 2.12 | 17.9

2 of these entries in another layout.
| gene symbol | reagent no. | G2 robust z-score | G2 cells, % of GMNN control |
| --- | --- | --- | --- |
| PDRG1 | 1 | 0.949 | 9.65 |
| PDRG1 | 2 | -0.0136 | 2.87 |

Continued:
gene symbol | reagent no. | G2 robust z-score | G2 cells, % of GMNN control
CDK15 | 1 | 3.46 | 27.3
CDK15 | 2 | -0.879 | -3.22
CDK15 | 3 | 9.16 (active) | 67.4
ZMPSTE24 | 1 | 4.79 | 36.7
ZMPSTE24 | 2 | 0.293 | 5.03
ZMPSTE24 | 3 | -0.202 | 1.55
GTF2IP3 | 1 | -0.336 | 0.601
GTF2IP3 | 2 | 2.04 | 17.3
GTF2IP3 | 3 | -0.196 | 1.59
NCAPH | 1 | -0.618 | -1.38
NCAPH | 2 | 3.59 | 28.3
NCAPH | 3 | -0.571 | -1.05
